PubChem BioAssay AID743121 – NCATS – 2013
Test: 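Knock-downs that sensitise breast cancer cells to camptothecin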 (primary screen). Cell system: MDA-MB-231 cells, a human breast cancer line. Reagent: single siRNA against human genes, 20 nM siRNA (0.8 pmol per well). Time to read-out: 120 h (drug added 48 h after transfection, read 72 h later). Treatment: camptothecin 20 nM (about EC30) for 72 h; vehicle 0.1% DMSO in parallel plates. Measured: 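Cell viability by ATP luminescence (CellTiter-Glo) as % of non-targeting siRNA wells, and the log2 ratio of viability without drug over viability with camptothecin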. Reading the numbers: log2 vehicle/camptothecin viability: higher = stronger sensitisation to camptothecin; viability with camptothecin: higher = more viable cells. Units: viability with camptothecin in % of control. Active means: 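Each gene scored by redundant siRNA activity (RSA) over its individual siRNA ratios; a gene is called active at p < 0.001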.
Shown is an unselected part of about 26,000 reagents tested. 167 of them (0.63%) were called active. 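Calls are per gene from RSA p-values that are not deposited; an individual active-marked siRNA can sensitise only weakly.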 The numbers tell different reagents against one gene apart. Not all columns of the deposit are shown.

CACNB4 (calcium voltage-gated channel auxiliary subunit beta 4) #1
- log2 vehicle/camptothecin viability: 0.571
- viability with camptothecin: 64.7
- Outcome: inactive

CACNB4 (calcium voltage-gated channel auxiliary subunit beta 4) #2
- log2 vehicle/camptothecin viability: -0.219
- viability with camptothecin: 45.8
- Outcome: inactive

CACNB4 (calcium voltage-gated channel auxiliary subunit beta 4) #3
- log2 vehicle/camptothecin viability: -0.685
- viability with camptothecin: 97.6
- Outcome: inactive

FAS (Fas cell surface death receptor) #1
- log2 vehicle/camptothecin viability: 0.253
- viability with camptothecin: 36
- Outcome: inactive

FAS (Fas cell surface death receptor) #2
- log2 vehicle/camptothecin viability: -0.417
- viability with camptothecin: 77.4
- Outcome: inactive

FAS (Fas cell surface death receptor) #3
- log2 vehicle/camptothecin viability: -0.163
- viability with camptothecin: 85.6
- Outcome: inactive

FAS (Fas cell surface death receptor) #4
- log2 vehicle/camptothecin viability: 0.231
- viability with camptothecin: 72.4
- Outcome: inactive

APCS (amyloid P component, serum) #1
- log2 vehicle/camptothecin viability: -0.183
- viability with camptothecin: 126
- Outcome: inactive

APCS (amyloid P component, serum) #2
- log2 vehicle/camptothecin viability: -0.336
- viability with camptothecin: 72.9
- Outcome: inactive

APCS (amyloid P component, serum) #3
- log2 vehicle/camptothecin viability: -0.421
- viability with camptothecin: 63.4
- Outcome: inactive

CD6 (CD6 molecule) #1
- log2 vehicle/camptothecin viability: -0.348
- viability with camptothecin: 86
- Outcome: inactive

CD6 (CD6 molecule) #2
- log2 vehicle/camptothecin viability: -0.12
- viability with camptothecin: 71.5
- Outcome: inactive

CD6 (CD6 molecule) #3
- log2 vehicle/camptothecin viability: -0.791
- viability with camptothecin: 31.7
- Outcome: inactive

CD6 (CD6 molecule) #4
- log2 vehicle/camptothecin viability: -0.757
- viability with camptothecin: 86.9
- Outcome: inactive

PSTPIP1 (proline-serine-threonine phosphatase interacting protein 1) #1
- log2 vehicle/camptothecin viability: -0.00688
- viability with camptothecin: 65.2
- Outcome: inactive

PSTPIP1 (proline-serine-threonine phosphatase interacting protein 1) #2
- log2 vehicle/camptothecin viability: 0.0595
- viability with camptothecin: 95.3
- Outcome: inactive

PSTPIP1 (proline-serine-threonine phosphatase interacting protein 1) #3
- log2 vehicle/camptothecin viability: -0.312
- viability with camptothecin: 86.9
- Outcome: inactive

PSTPIP1 (proline-serine-threonine phosphatase interacting protein 1) #4
- log2 vehicle/camptothecin viability: -0.0556
- viability with camptothecin: 47.5
- Outcome: inactive

SUV39H1 (SUV39H1 histone lysine methyltransferase) #1
- log2 vehicle/camptothecin viability: -0.154
- viability with camptothecin: 97.6
- Outcome: inactive

SUV39H1 (SUV39H1 histone lysine methyltransferase) #2
- log2 vehicle/camptothecin viability: -0.115
- viability with camptothecin: 112
- Outcome: inactive

SUV39H1 (SUV39H1 histone lysine methyltransferase) #3
- log2 vehicle/camptothecin viability: -0.0715
- viability with camptothecin: 46.8
- Outcome: inactive

SUV39H1 (SUV39H1 histone lysine methyltransferase) #4
- log2 vehicle/camptothecin viability: 0.28
- viability with camptothecin: 69.7
- Outcome: inactive

ARSH (arylsulfatase family member H) #1
- log2 vehicle/camptothecin viability: -0.187
- viability with camptothecin: 58.4
- Outcome: inactive

ARSH (arylsulfatase family member H) #2
- log2 vehicle/camptothecin viability: -0.273
- viability with camptothecin: 93.7
- Outcome: inactive

ARSH (arylsulfatase family member H) #3
- log2 vehicle/camptothecin viability: -0.09
- viability with camptothecin: 95.9
- Outcome: inactive

ABCC5 (ATP binding cassette subfamily C member 5) #1
- log2 vehicle/camptothecin viability: -0.0796
- viability with camptothecin: 73.7
- Outcome: inactive

ABCC5 (ATP binding cassette subfamily C member 5) #2
- log2 vehicle/camptothecin viability: -0.227
- viability with camptothecin: 112
- Outcome: inactive

ABCC5 (ATP binding cassette subfamily C member 5) #3
- log2 vehicle/camptothecin viability: -0.251
- viability with camptothecin: 124
- Outcome: inactive

ABCC5 (ATP binding cassette subfamily C member 5) #4
- log2 vehicle/camptothecin viability: -0.0103
- viability with camptothecin: 64.7
- Outcome: inactive

RNF183 (ring finger protein 183) #1
- log2 vehicle/camptothecin viability: -0.206
- viability with camptothecin: 67.4
- Outcome: inactive

RNF183 (ring finger protein 183) #2
- log2 vehicle/camptothecin viability: -0.588
- viability with camptothecin: 79.4
- Outcome: inactive

RNF183 (ring finger protein 183) #3
- log2 vehicle/camptothecin viability: -0.344
- viability with camptothecin: 61.6
- Outcome: inactive

RNF183 (ring finger protein 183) #4
- log2 vehicle/camptothecin viability: -0.236
- viability with camptothecin: 69.9
- Outcome: inactive

VPS41 (VPS41 subunit of HOPS complex) #1
- log2 vehicle/camptothecin viability: 0.154
- viability with camptothecin: 51.1
- Outcome: inactive

VPS41 (VPS41 subunit of HOPS complex) #2
- log2 vehicle/camptothecin viability: 0.724
- viability with camptothecin: 20.5
- Outcome: inactive

VPS41 (VPS41 subunit of HOPS complex) #3
- log2 vehicle/camptothecin viability: 0.623
- viability with camptothecin: 17.8
- Outcome: inactive

VPS41 (VPS41 subunit of HOPS complex) #4
- log2 vehicle/camptothecin viability: -0.387
- viability with camptothecin: 45.4
- Outcome: inactive

OR5L2 (olfactory receptor family 5 subfamily L member 2) #1
- log2 vehicle/camptothecin viability: -0.655
- viability with camptothecin: 54.3
- Outcome: inactive

OR5L2 (olfactory receptor family 5 subfamily L member 2) #2
- log2 vehicle/camptothecin viability: 0.258
- viability with camptothecin: 44
- Outcome: inactive

OR5L2 (olfactory receptor family 5 subfamily L member 2) #3
- log2 vehicle/camptothecin viability: 0.0218
- viability with camptothecin: 75.8
- Outcome: inactive

OR5L2 (olfactory receptor family 5 subfamily L member 2) #4
- log2 vehicle/camptothecin viability: -0.04
- viability with camptothecin: 81.9
- Outcome: inactive

SIGLEC12 (sialic acid binding Ig like lectin 12) #1
- log2 vehicle/camptothecin viability: -0.0672
- viability with camptothecin: 63.4
- Outcome: inactive

SIGLEC12 (sialic acid binding Ig like lectin 12) #2
- log2 vehicle/camptothecin viability: 0.0856
- viability with camptothecin: 69.5
- Outcome: inactive

SIGLEC12 (sialic acid binding Ig like lectin 12) #3
- log2 vehicle/camptothecin viability: -0.0138
- viability with camptothecin: 110
- Outcome: inactive

SIGLEC12 (sialic acid binding Ig like lectin 12) #4
- log2 vehicle/camptothecin viability: -0.19
- viability with camptothecin: 107
- Outcome: inactive
